Reference: doi:10.1101/751974
No constants are given. Whether binding was seen depends on the method and setting. Binding seen in cells or lysates may run through a third protein. Some results given as binding are weak or reduced against the parent protein; the word gives no strength.

By UniProt entry, the sequences of proteins in these tests, tags left out.
UniProt P27694: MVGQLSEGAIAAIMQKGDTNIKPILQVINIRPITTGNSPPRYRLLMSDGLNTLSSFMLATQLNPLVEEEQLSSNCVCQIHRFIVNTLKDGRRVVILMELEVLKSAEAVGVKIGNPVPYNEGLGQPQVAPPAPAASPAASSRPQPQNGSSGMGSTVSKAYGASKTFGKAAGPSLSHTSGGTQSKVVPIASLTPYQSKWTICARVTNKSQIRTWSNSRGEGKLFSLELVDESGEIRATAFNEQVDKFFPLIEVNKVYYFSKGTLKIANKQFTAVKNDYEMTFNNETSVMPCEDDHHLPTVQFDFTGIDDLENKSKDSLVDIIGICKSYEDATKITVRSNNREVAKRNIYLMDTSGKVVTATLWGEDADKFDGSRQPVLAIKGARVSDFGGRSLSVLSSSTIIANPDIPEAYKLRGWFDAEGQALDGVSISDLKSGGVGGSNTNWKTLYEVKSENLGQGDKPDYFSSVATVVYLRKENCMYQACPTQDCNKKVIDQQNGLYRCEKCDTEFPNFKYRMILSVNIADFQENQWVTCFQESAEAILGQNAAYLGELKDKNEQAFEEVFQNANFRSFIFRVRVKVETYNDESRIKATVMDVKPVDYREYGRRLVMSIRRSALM

Biological target: HA-RPA1 (UniProt P27694)
Assay: co-IP

- binding: binds
B1: MCM8IP, endogenous (protein, UniProt Q8N3J3-4 1-646)
chain: MACSLQKLFAVEEEFEDEDFLSAVEDAENRFTGSLPVNAGRLRPVSSRPQETVQAQSSRLLLLHPTAPSEALGLPDLDLCLPASSTPSADSRPSCIGAAPLRPVSTSSSWIGNQRRVTVTEVLRETARPQSSALHPLLTFESQQQQVGGFEGPEQDEFDKVLASMELEEPGMELECGVSSEAIPILPAQQREGSVLAKKARVVDLSGSCQKGPVPAIHKAGIMSAQDESLDPVIQCRTPRPPLRPGAVGHLPVPTALTVPTQQLHWEVCPQRSPVQALQPLQAARGTIQSSPQNRFPCQPFQSPSSWLSGKAHLPRPRTPNSSCSTPSRTSSGLFPRIPLQPQAPVSSIGSPVGTPKGPQGALQTPIVTNHLVQLVTAASRTPQQPTHPSTRAKTRRFPGPAGILPHQQSGRSLEDIMVSAPQTPTHGALAKFQTEIVASSQASVEEDFGRGPWLTMKSTLGLDERDPSCFLCTYSIVMVLRKAALKQLPRNKVPNMAVMIKSLTRSTMDASVVFKDPTGEMQGTVHRLLLETCQNELKPGSVLLLKQIGVFSPSLRNHYLNVTPNNLVHIYSPDSGDGSFLKPSQPFPKDSGSFQHDVAAKPEEGFRTAQNLEAEASPEEELPEADDLDGLLSELPEDFFCGTSS
